# Source: patent US11369605B2, “Optically active azabicyclo ring derivative” (priority 2018, dated 2022)
# At least one compound was matched to its structure with a doubt left.
# How the values were obtained:
# [1] = system: MEIS1 mRNA in MV4; 11 cells; assay: Test 3: inhibition of mRNA transcription, MEIS1; assay type: cell-based; conditions: MEIS1 and HOXA9, MV4, summary of Test 3
# Procedure: Test 3: Test for the Inhibition of mRNA Transcription with Test Compounds
# MV4; 11 cells were obtained from American Type Culture Collection (ATCC). […] After the incubation, the total RNA was extracted from the cells with RNeasy™ Mini Kit (QIAGEN, 74106), and cDNA was synthesized with Superscript™ VILO™ cDNA Synthesis Kit (Invitrogen, #11754250). By using TaqMan™ Gene Expression Master Mix (Applied Biosystems, 4369016) and TaqMan™ probe (Applied Biosystems), the expression level of mRNA was quantified from the obtained cDNA with 7900HT (Applied Biosystems). The expression level of each obtained gene (MEIS1 and HOXA9) was fitted with the expression level of mRNA of GAPDH.
# [2] = system: RS4; 11 cells; assay: Test 2: inhibition of cell proliferation, RS4; 11; assay type: cell-based; conditions: summary of Test 2 (RS4; 11 and MOLM-13)
# Procedure: Test for Evaluating the Inhibition of Cell Proliferation RS4; 11 cells were obtained from American Type Culture Collection (ATCC). […] MOLM-13 cells were separately obtained from DSMZ (Deutsche Sammlung von Mikroorganismen und Zeilkulturen GmbH). […] The cells were plated to a 96-well plate in 2000 cells/well, each test compound was added thereto to adjust the final concentration of DMSO to 0.1% of DMSO, and the cells were cultured for 7 days. After the cultivation, the cell viability was calculated with PrestoBlue™ Cell Viability Reagent (Invitrogen, A13261).
structure (smiles),measurement,setting,value
"C=C1C[C@H]2CC[C@@H]1N[C@@H]2C(=O)N1CCC2(CC1)CN(c1ncncc1Oc1ccc(F)cc1C(=O)N(C(C)C)C(C)C)C2 [Example 8, 5-fluoro-2-[(4-{7-[(1S,3S,4R)-6-methylidene-2-azabicyclo[2.2.2]octane-3-carbonyl]-2,7-diazaspiro[3.5]nonan-2-yl}pyrimidin-5-yl)oxy]-N,N-di(propan-2-yl)benzamide]",mRNA transcription inhibition activity (in words),[1],showed the mRNA transcription inhibition activity
same,cell proliferation inhibition activity (in words),[2],potent
"C=C1C[C@H]2CC[C@@H]1N[C@@H]2C(=O)N1CC2(C1)CN(c1ncncc1Oc1ccc(F)cc1C(=O)N(C(C)C)C(C)C)C2 [Example 9, 5-fluoro-2-[(4-{6-[(1S,3S,4R)-6-methylidene-2-azabicyclo[2.2.2]octane-3-carbonyl]-2,6-diazaspiro[3.3]heptan-2-yl}pyrimidin-5-yl)oxy]-N,N-di(propan-2-yl)benzamide]",mRNA transcription inhibition activity (in words),[1],showed the mRNA transcription inhibition activity
same,cell proliferation inhibition activity (in words),[2],potent
